# Results reported in PubChem BioAssay AID1347423 (Functional Genomics Laboratory (NCATS/FGL), 2020).
# Hit rate of the full screen: of about 52,000 sequences, about 210 (0.4%) were called active.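 How the source made its calls: active means gene whose silencing raises cell survival under the drug, median off-target-corrected z-score across its silencing RNAs 2 or more; inactive means the rest.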 This is one part of the list.
# Assay: Resistance to Poly (ADP-Ribose) Polymerase inhibitor: Gene Identification via Genome-wide siRNA Screen
# Conditions: mouse BRCA2 R2336H ES cells, olaparib, CellTiter-Glo viability; active compounds read high
# Summary of the method: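 Genome-wide siRNA screen (3 siRNAs/gene, 20 nM) in mouse ES cells carrying hypomorphic BRCA2 R2336H; olaparib 500 nM added 48 h post-transfection, CellTiter-Glo viability 72 h later. Normalized to plate-median negative control; MAD z-scores, gene median, seed-adjusted.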
row,Sequence,z-score
1,GGGACAAUGAAUGUGAUCUTT against 1700056P18Rik,inactive: -0.649
2,GGCCCAUGAUCCAUUUUGGTT against Prnp,inactive: 0.948
3,GGUCUUCUUCUUCAAAGCUTT against Mrpl46,inactive: -0.301
4,GCUUAAGGACGCAUUGAAATT against Pthlh,inactive: -0.0187
5,GCCACUAUACAUAUUCUGGTT against Pcdhb18,inactive: 1.43
6,GGUGUGGUCAAGAAAGUGGTT against Atp6v1c1,inactive: -1.5
7,CCGAUUUUGUGGCCUCAUGTT against Grcc2f,inactive: -1.69
8,GGAAGAUCAUCCUAUUAUGTT against Wdr26,inactive: -0.526
9,GCGAUAGCAUAUCCUAUCCTT against Gnb1,inactive: 0.0208
10,CAAGUUAAGGAACUAUGAUTT against LOC432823,inactive: 1.17
11,GGAGAUCAUGUCAAAAAAGTT against 5430411K16Rik,inactive: -0.0837
12,GGGCAUGAAGUUUCUGAUCTT against Fgf17,inactive: 1.27
13,GCAACUCAGAAUGUAGUGUTT against Gnai1,inactive: 0.0155
14,CCAAGGCUCACCUUCCAAUTT against Sla,inactive: -1.39
15,GGCAGAUCUUCUUUGGAAATT against 9430041C03Rik,inactive: 1.47
16,GGAGAGUGCUGAUGUUCUGTT against Psx1,inactive: -0.913
17,CCAGAAACUGACCUCAACCTT against Ltb,inactive: -0.873
18,GGGUUUCUAGUCCUGUUUCTT against Cplx2,inactive: -0.545
19,GUGUCUCUGUACUUAUUAUTT against Olfr483,inactive: 0.104
20,GCCCUCAAUAACUAUGUACTT against Il2,inactive: 2.24
21,GGACCUAAGAAACUGCUUATT against Ccr7,inactive: 1.04
22,GGAUGAAAAUCAAUUCUCCTT against Nusap1,inactive: -0.597
23,ACGACGAUCUUUCAGAAGUTT against MGI:2684414,inactive: -0.0804
24,GGAGUGUUUAAAUAUAGCCTT against Mtmr9,inactive: 0.651
25,GGAACAAACCUUCAUUUAGTT against Osbp2,inactive: 1.08
26,AACAUUGUAUAUCUCUCAUTT against Saa1,inactive: -0.237

row,Sequence,z-score
1,CCGAAAUGGACAUAUCAUUTT against Trim3,inactive: 0.412
2,GGUGGUUUAAGAAAUCAAATT against Dolpp1,inactive: -0.011
3,CGUGAAAUAAACAGUCUGATT against Ranbp2,inactive: -1.18
4,CCGAGCAAAAUCUCAAAUUTT against Mdh1,inactive: 0.503
5,CCUUAAUCAUUAGGAUUGCTT against 2700038I16Rik,inactive: 0.41
6,GGCAGAGCCUGGAUUUAUCTT against 2610524H06Rik,inactive: 0.2
7,GGCUGAGCACAAUAAUCCCTT against Ndufs7,inactive: -0.279
8,GGUCAGAUUCGGAAACCAGTT against D10Ertd718e,inactive: -1.54
9,GGAUGAAGAGCAUAACAGUTT against 2010005O13Rik,inactive: -1.02
10,GGUCAACUCCUUUAUGAGCTT against Apoa4,inactive: 0.58
11,GCUGGACAUCAAUACGGUGTT against Oplah,inactive: -1.11
12,GGUGAAGAUCAUAUAAAAGTT against B230205M03,inactive: 1.02
13,GGCAGAAAGACAUUUUCUUTT against 4921524P20Rik,inactive: -1.22
14,GGGAAAUCAGAUAAAGCCCTT against 2900073G15Rik,inactive: 0.2
15,GCUUUUCCGUGAUCAUACATT against Tex14,inactive: -1.6
16,GGCAAGGUCUUCAAAGCGCTT against 2410081M15Rik,inactive: 0.562
17,GCAAUUACAGGAGGAAUUATT against Orc3l,inactive: -0.776
18,GGAGCUCCUCUGAAUGCUCTT against Arhgef15,inactive: -0.285
19,GGCAAGAGAAUUGUAUACATT against 1810010O14Rik,inactive: -1.28
20,GGGAAGCAAUAAGUCGCCUTT against 6230417E10Rik,inactive: 0.723
21,GGAUGCUCAACACUACGCUTT against Avp,inactive: 0.831
22,GGCAAACAAAACAAACUGATT against Tram1l1,inactive: -0.244
23,GGACAUCAAUUCAACAGUUTT against Lifr,inactive: 1.04
24,GGCAGAUGAGGGCUUAGCATT against 6530402N02Rik,inactive: 0.211
25,GGAAAAGACAAGCAUACGATT against Tmem16f,inactive: -0.678
26,GAUGCUGCCAACAUGACACTT against Clps,inactive: -2.58

row,Sequence,z-score
1,GGAGUCAAGUCCACAUACATT against Usp47,active: -0.927
2,CGCAAUGGAAGUCUAUCUUTT against Zdhhc5,inactive: 0.131
3,GGAGUGUUGAAGAAUAAGATT against Siat10,inactive: 0.0815
4,GGCUGUGUUGAGUUUUCACTT against Abcg3,inactive: 0.191
5,UGAUCUACACUUUGGCUGUTT against Olfr232,inactive: 1.42
6,GGAGGAUCUAUACCACGGUTT against Gpr74,inactive: -0.143
7,GGAGAACAAGAUCCUGGAGTT against D3Ertd789e,inactive: -1.04
8,GCUGGAUCUCAAGAAAAAUTT against Pou4f2,inactive: -0.181
9,CCUAAAUUCGGUUUGAAUCTT against Fath,active: 2.74
10,GCUCUGUGUGGUCUCCUAATT against Nrm,inactive: -0.829
11,GGAACAUGUUUGAGUUUAATT against 2410006F12Rik,inactive: -1.42
12,GCGACUAUUUUGAAUACCATT against Tlk1,inactive: 1.77
13,GCCCUCUUAUCUGAAUAAUTT against Stk17b,inactive: 0.201
14,GCGGUAAUAUCUACGAAGATT against Ina,inactive: 1.59
15,GGGAAGAAGAAGAAUUUUGTT against Ubap2,inactive: 0.277
16,GCCCUAUCAACACUUGGGATT against Prrxl1,inactive: 0.0447
17,GCUCCGAAAGACUAGAUACTT against Spag8,inactive: -1.54
18,CGCACAUCCUGAAUAUACATT against Drd2,inactive: 0.209
19,GGAAGAGUGAUGGUUUUAATT against Tollip,inactive: -0.815
20,GGACAGCAACUAACAUUCATT against D630044F24Rik,inactive: 1.22
21,GGAGAUGGAUUUUUCUACUTT against F830045P16Rik,inactive: -0.942
22,CCAGAAUUGGCAGAUUUGCTT against Frap1,inactive: -1.32
23,GCUAAAAUUGGAUCAAGGATT against Ccbp2,inactive: 2.14
24,GCUAGCAUAACUUCAGCUATT against Trim45,inactive: 0.332
25,GGAACUCAGCUACAGUGAATT against D14Ertd209e,inactive: -1.57
26,GGAGAUCACAGAAAAAACCTT against Colec12,inactive: 0.0649

# Three entries from above, as tab-separated lines.
row	Sequence	z-score
1	GGAGUCAAGUCCACAUACATT against Usp47	active: -0.927
2	CGCAAUGGAAGUCUAUCUUTT against Zdhhc5	inactive: 0.131
3	GGAGUGUUGAAGAAUAAGATT against Siat10	inactive: 0.0815

# 2 neighbouring records from above:
row,Sequence,z-score
7,CCGAUUUUGUGGCCUCAUGTT against Grcc2f,inactive: -1.69
8,GGAAGAUCAUCCUAUUAUGTT against Wdr26,inactive: -0.526

# Next part

row,Sequence,z-score
1,CGCGUCUCUACAAAAACAUTT against Impa2,inactive: 0.867
2,GGGCCAACUCAAAACAAAATT against Wdr37,inactive: 1.15
3,GGUGUCAUCAAGUUGAAAATT against Mcrs1,inactive: 1.81
4,GCGGUACAUCAAAUCUGCGTT against 1110067D22Rik,inactive: -0.23
5,GCCUUGGCCUAAGUUAUACTT against BC055368,inactive: -0.656
6,GCCCUAAUUGACUAUGAGATT against Snx5,inactive: 0.11
7,GCACCGUGUCGUUGACUUGTT against A130009K11Rik,inactive: 0.149
8,GCUGGAUGGAGGCAAAGCATT against C1ql1,inactive: -1.56
9,GGCUCUGACAGACAAUGGATT against Dpt,inactive: 0.914
10,GGGUGAUGUGUGACAAUGUTT against Wnt2,inactive: -1.15
11,GGACAUGGAGAAAAAGUACTT against AI326477,inactive: -0.868
12,CCAUAUCUAUGAUAUGGUUTT against 9430028L06Rik,inactive: -0.556
13,GGGAUGCUUUUGGCCCAAATT against 1110008J03Rik,inactive: -0.285
14,GGACCACUCUGAAUAAGACTT against Ttc12,inactive: -1.62
15,CCAUUACCUUACCCUCCGATT against Scnm1,inactive: -1.14
16,GUCAAAAAGCAAGAAGCCUTT against Etd,inactive: 0.575
17,GGCUGACAAGGAAUUUGUATT against D530005L17Rik,inactive: -0.489
18,GGUAAAGAGAGAUCCAUCCTT against Pphln1,inactive: -0.913
19,CGAAUGGAGCCUUAUUACUTT against C130068N17Rik,inactive: 0.628
20,GGUCUCUUUCCUAUCCAUUTT against Gprc2a,inactive: 2.67
21,GCAGGUACAAAUCUACUACTT against Myo7b,inactive: 0.56
22,GGUUCUCUUUGAAGAAACUTT against Amotl2,inactive: -1.56
23,GGCAUUAAACAAGAAGCUUTT against Dspg3,inactive: -0.861
24,GGAGUGCUGUAUUUUUGUATT against Gpr68,inactive: -0.927
25,CCCUGUAUAUAUUUGCUGATT against Clca2,inactive: 0.501
26,GGACUUGCCACCCAGGAAATT against Apba3,inactive: 0.00652
